No constants are given. Whether binding was seen depends on the method and setting. Binding seen in cells or lysates may run through a third protein. Tags and fused reporters may be left off the sequences shown.

Chains of the proteins cited; added tags and fusions are not shown. Residues count along the entry.
UniProt P35739, residues 33-799: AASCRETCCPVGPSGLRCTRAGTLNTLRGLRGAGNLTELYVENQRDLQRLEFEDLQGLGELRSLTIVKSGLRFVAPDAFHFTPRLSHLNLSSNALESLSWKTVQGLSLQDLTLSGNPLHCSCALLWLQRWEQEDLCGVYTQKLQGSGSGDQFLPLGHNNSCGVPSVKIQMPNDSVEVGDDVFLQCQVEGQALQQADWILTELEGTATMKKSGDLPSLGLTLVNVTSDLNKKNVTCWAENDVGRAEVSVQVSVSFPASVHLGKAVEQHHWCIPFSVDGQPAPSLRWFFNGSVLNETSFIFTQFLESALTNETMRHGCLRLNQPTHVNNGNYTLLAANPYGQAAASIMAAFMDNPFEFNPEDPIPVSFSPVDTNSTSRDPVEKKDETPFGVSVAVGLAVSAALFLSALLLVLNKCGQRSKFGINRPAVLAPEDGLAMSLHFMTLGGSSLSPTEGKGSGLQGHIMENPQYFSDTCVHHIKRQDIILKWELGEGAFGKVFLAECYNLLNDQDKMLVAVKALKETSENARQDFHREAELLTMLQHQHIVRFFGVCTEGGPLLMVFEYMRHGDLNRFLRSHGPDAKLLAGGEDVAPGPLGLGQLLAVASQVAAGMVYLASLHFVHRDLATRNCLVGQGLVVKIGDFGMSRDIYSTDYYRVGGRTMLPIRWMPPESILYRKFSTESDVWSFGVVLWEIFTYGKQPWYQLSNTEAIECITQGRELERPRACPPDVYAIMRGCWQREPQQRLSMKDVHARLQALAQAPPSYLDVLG

The experiment deals with T1, Flag-tagged Tiam1 (C1199), aa 393-1590 (UniProt Q60610).
T1 sequence: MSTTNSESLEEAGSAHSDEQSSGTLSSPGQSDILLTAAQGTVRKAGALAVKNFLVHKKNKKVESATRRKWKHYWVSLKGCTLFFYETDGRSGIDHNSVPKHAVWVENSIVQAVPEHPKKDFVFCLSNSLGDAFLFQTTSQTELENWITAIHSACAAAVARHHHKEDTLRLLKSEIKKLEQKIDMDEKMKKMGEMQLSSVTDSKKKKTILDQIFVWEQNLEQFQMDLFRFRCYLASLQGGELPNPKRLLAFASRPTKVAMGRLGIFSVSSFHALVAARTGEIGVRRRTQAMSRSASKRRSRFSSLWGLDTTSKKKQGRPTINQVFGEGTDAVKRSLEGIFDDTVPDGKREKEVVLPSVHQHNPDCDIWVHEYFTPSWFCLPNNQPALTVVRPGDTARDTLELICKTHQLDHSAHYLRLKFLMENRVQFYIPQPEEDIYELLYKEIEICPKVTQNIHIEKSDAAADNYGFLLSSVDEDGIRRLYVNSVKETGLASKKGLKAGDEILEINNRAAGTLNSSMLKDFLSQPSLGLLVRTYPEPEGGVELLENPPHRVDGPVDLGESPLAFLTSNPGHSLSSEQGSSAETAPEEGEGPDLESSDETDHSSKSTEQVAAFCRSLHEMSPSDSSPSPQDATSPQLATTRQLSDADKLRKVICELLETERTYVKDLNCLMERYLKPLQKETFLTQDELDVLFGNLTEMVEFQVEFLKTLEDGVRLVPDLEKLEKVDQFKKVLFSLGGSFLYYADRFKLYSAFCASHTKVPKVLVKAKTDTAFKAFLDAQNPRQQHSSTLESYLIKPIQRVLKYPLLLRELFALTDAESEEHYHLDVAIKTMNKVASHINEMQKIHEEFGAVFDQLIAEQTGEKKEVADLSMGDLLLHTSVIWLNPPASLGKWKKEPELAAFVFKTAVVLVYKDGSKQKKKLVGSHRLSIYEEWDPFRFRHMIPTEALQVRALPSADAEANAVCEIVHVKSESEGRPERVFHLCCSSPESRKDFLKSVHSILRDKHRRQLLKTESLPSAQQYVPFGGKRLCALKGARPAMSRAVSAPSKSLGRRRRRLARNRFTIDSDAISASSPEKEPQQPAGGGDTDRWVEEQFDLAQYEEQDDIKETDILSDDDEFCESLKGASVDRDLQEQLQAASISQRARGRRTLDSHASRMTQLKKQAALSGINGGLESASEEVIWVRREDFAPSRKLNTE
Description: co-IP; COS cells transfected with Flag-tagged Tiam1 (C1199) and HA-tagged TrkA; IP with anti-Flag, immunoblot with anti-HA; lysis in 0.5% Triton X-100, 1% beta-octylglucoside at 4°C.

In the case of “hemagglutinin (HA)-tagged TrkA (from UniProt P35739 33-799) (receptor)”, the binding entry is listed as “no binding”.

(Values after paper PMC2841637.)
